Assay results from patent US12180167B1, “6-[4,4-bis(4-bromophenyl)-2,5-dioxoimidazolidin-1-yl]hexanoic acid as an antimicrobial compound” (KING FAISAL UNIVERSITY, priority 2024, dated 2024).
At least one compound was matched to its structure with a doubt left.

What was measured:
Format in all cases: cell-based
Staphylococcus aereus = experiment: Antimicrobial testing by agar dilution, St. Aereus
Procedure: (§1) The antimicrobial properties of the 6-[4,4-bis(4-bromophenyl)-2,5-dioxoimidazolidin-1-yl]hexanoic acid were studied by the method of agar dilution. Test solutions of each compound was prepared in concentration of 1% using dimethylformamide as a solvent then they are diluted in physiological solution to obtain the final experimental dilutions 1:100, 1:200, 1:400, 1:800. The effect of these substances are compared with furacillin in a controllable study. The testing microbes used were gram positive bacteria Staphylococcus aereus, gram negative bacteria Escherichia Coli, Pseudomonas aeruginosa and Candida albicans fungi were taken. The experiments used for this survey were meat-pentonlu agar (EPA) for cultivation of bacteria and Saburo environment for fungi. Each experiment used 1 ml of test solution on each plate 500 min. Add 2 drops of emulsified with microbes feel. All experimental samples were taken from the agar after 10, 20, 40, 60 minutes in the environment on the basis of Patrk planted. Bacteria were cultivated at a temperature of 37° C. for 1 day and the mushroom was kept in a thermostat for 2 hours at a temperature of 28° C. in the. Then results were checked.

Escherichia Coli = experiment: Antimicrobial testing by agar dilution, E. Coli
Procedure: as §1

Pseudomonas aeruginosa = experiment: Antimicrobial testing by agar dilution, Ps. aeruginosa
Procedure: as §1

Candida albicans = experiment: Antimicrobial testing by agar dilution, Candida albicans
Procedure: as §1

[1] = dilution rate 1:100, exposure time 10 min
[2] = dilution rate 1:100, exposure time 20 min
[3] = dilution rate 1:100, exposure time 40 min
[4] = dilution rate 1:100, exposure time 60 min
[5] = dilution rate 1:200, exposure time 10 min
[6] = dilution rate 1:200, exposure time 20 min
[7] = dilution rate 1:200, exposure time 40 min
[8] = dilution rate 1:200, exposure time 60 min
[9] = dilution rate 1:400, exposure time 10 min
[10] = dilution rate 1:400, exposure time 20 min
[11] = dilution rate 1:400, exposure time 40 min
[12] = dilution rate 1:400, exposure time 60 min
[13] = dilution rate 1:800, exposure time 10 min
[14] = dilution rate 1:800, exposure time 20 min
[15] = dilution rate 1:800, exposure time 40 min
[16] = dilution rate 1:800, exposure time 60 min

NC(=O)N/N=C/c1ccc([N+](=O)[O-])o1 [Furacilin]
antimicrobial activity, St. Aereus (Staphylococcus aereus; [1]): −
antimicrobial activity, St. Aereus (Staphylococcus aereus; [2]): −
antimicrobial activity, St. Aereus (Staphylococcus aereus; [3]): −
antimicrobial activity, St. Aereus (Staphylococcus aereus; [4]): −
antimicrobial activity, St. Aereus (Staphylococcus aereus; [5]): +
antimicrobial activity, St. Aereus (Staphylococcus aereus; [6]): +
antimicrobial activity, St. Aereus (Staphylococcus aereus; [7]): +
antimicrobial activity, St. Aereus (Staphylococcus aereus; [8]): +
antimicrobial activity, St. Aereus (Staphylococcus aereus; [9]): +
antimicrobial activity, St. Aereus (Staphylococcus aereus; [10]): +
antimicrobial activity, St. Aereus (Staphylococcus aereus; [11]): +
antimicrobial activity, St. Aereus (Staphylococcus aereus; [12]): +
antimicrobial activity, St. Aereus (Staphylococcus aereus; [13]): +
antimicrobial activity, St. Aereus (Staphylococcus aereus; [14]): +
antimicrobial activity, St. Aereus (Staphylococcus aereus; [15]): +
antimicrobial activity, St. Aereus (Staphylococcus aereus; [16]): +
antimicrobial activity, E. Coli (Escherichia Coli; [1]): −
antimicrobial activity, E. Coli (Escherichia Coli; [2]): −
antimicrobial activity, E. Coli (Escherichia Coli; [3]): −
antimicrobial activity, E. Coli (Escherichia Coli; [4]): −
antimicrobial activity, E. Coli (Escherichia Coli; [5]): +
antimicrobial activity, E. Coli (Escherichia Coli; [6]): +
antimicrobial activity, E. Coli (Escherichia Coli; [7]): +
antimicrobial activity, E. Coli (Escherichia Coli; [8]): +
antimicrobial activity, E. Coli (Escherichia Coli; [9]): +
antimicrobial activity, E. Coli (Escherichia Coli; [10]): +
antimicrobial activity, E. Coli (Escherichia Coli; [11]): +
antimicrobial activity, E. Coli (Escherichia Coli; [12]): +
antimicrobial activity, E. Coli (Escherichia Coli; [13]): +
antimicrobial activity, E. Coli (Escherichia Coli; [14]): +
antimicrobial activity, E. Coli (Escherichia Coli; [15]): +
antimicrobial activity, E. Coli (Escherichia Coli; [16]): +
antimicrobial activity, Ps. aeruginosa (Pseudomonas aeruginosa; [1]): +
antimicrobial activity, Ps. aeruginosa (Pseudomonas aeruginosa; [2]): +
antimicrobial activity, Ps. aeruginosa (Pseudomonas aeruginosa; [3]): +
antimicrobial activity, Ps. aeruginosa (Pseudomonas aeruginosa; [4]): +
antimicrobial activity, Ps. aeruginosa (Pseudomonas aeruginosa; [5]): +
antimicrobial activity, Ps. aeruginosa (Pseudomonas aeruginosa; [6]): +
antimicrobial activity, Ps. aeruginosa (Pseudomonas aeruginosa; [7]): +
antimicrobial activity, Ps. aeruginosa (Pseudomonas aeruginosa; [8]): +
antimicrobial activity, Ps. aeruginosa (Pseudomonas aeruginosa; [9]): +
antimicrobial activity, Ps. aeruginosa (Pseudomonas aeruginosa; [10]): +
antimicrobial activity, Ps. aeruginosa (Pseudomonas aeruginosa; [11]): +
antimicrobial activity, Ps. aeruginosa (Pseudomonas aeruginosa; [12]): +
antimicrobial activity, Ps. aeruginosa (Pseudomonas aeruginosa; [13]): +
antimicrobial activity, Ps. aeruginosa (Pseudomonas aeruginosa; [14]): +
antimicrobial activity, Ps. aeruginosa (Pseudomonas aeruginosa; [15]): +
antimicrobial activity, Ps. aeruginosa (Pseudomonas aeruginosa; [16]): +
antimicrobial activity, Candida albicans (Candida albicans; [1]): −
antimicrobial activity, Candida albicans (Candida albicans; [2]): −
antimicrobial activity, Candida albicans (Candida albicans; [3]): +
antimicrobial activity, Candida albicans (Candida albicans; [4]): +
antimicrobial activity, Candida albicans (Candida albicans; [5]): +
antimicrobial activity, Candida albicans (Candida albicans; [6]): +
antimicrobial activity, Candida albicans (Candida albicans; [7]): +
antimicrobial activity, Candida albicans (Candida albicans; [8]): +
antimicrobial activity, Candida albicans (Candida albicans; [9]): +
antimicrobial activity, Candida albicans (Candida albicans; [10]): +
antimicrobial activity, Candida albicans (Candida albicans; [11]): +
antimicrobial activity, Candida albicans (Candida albicans; [12]): +
antimicrobial activity, Candida albicans (Candida albicans; [13]): +
antimicrobial activity, Candida albicans (Candida albicans; [14]): +
antimicrobial activity, Candida albicans (Candida albicans; [15]): +
antimicrobial activity, Candida albicans (Candida albicans; [16]): +
